Experimental findings from PubChem BioAssay AID743263 (The Scripps Research Institute Molecular Screening Center, 2014) are described below.

Protein sequences, listed by entry. Tags and fused reporters are not part of them. Lines headed by an entry give the natural chain unless they say otherwise; changes in a name come on top.
UniProt O95551: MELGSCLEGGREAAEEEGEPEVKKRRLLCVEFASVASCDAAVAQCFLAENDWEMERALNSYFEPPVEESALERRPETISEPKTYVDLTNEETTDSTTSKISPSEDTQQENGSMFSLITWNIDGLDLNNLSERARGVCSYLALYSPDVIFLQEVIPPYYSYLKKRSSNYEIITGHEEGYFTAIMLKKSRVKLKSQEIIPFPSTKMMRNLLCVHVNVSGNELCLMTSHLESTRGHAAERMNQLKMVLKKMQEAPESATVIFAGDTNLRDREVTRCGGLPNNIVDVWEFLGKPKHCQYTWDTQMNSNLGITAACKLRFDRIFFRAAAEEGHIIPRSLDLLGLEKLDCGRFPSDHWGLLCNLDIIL

Structures are written as SMILES. Hit rate of the full screen: of about 1,100 compounds, about 250 (23%) were called active. No stated cut-off is given here; in the data, active means inhibition above about 25%; inactive means the rest. The list shows a part of the results, in another mix than the full data.

This experiment concerns the target Tyrosyl-DNA phosphodiesterase 2 (Homo sapiens) (UniProt O95551). Nature of the experiment: blockers of TDP2 phosphodiesterase activity – biochemical, epi absorbance, recombinant enzyme, confirmation (AID 743263).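 Further: 0% = vehicle with enzyme and 100% = no enzyme buffer only.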 To be noted: recombinant human TDP2, absorbance read-out; at 12.8 µM; hits give high values.
Turning to `COc1cc2c(cc1OC)-c1c(OC)c(OC)cc3c1[C@H](C2)N(C)CC3`, the inhibition was active: 55.9%.
Regarding `O=C1NC(=O)N(Cc2ccco2)C(=O)/C1=C\c1ccc(-c2ccc(F)cc2)o1`, the inhibition was inactive: 16.4%.

A word on the inhibition: it is the share of the control response that was lost under treatment.
